PubChem BioAssay AID1259331 – Drosophila RNAi Screening Center, 2017

Test: 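Genes whose knock-down changes cell survival under toxic zinc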 (primary screen)
Cell system: Drosophila S2R+ cells
Reagents: long dsRNA against Drosophila genes
Time to read-out: 5 days (4 days knock-down, then 1 day zinc)
Challenge: zinc chloride at 15 mM final level for 1 day
Read-out: 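Total cellular ATP measured by luciferase luminescence as a viability proxy, turned into Z scores from three plate copies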
Reading the numbers: mean Z score: higher = more ATP than other wells, better survival under zinc; ATP luminescence: higher = more ATP, more viable cells
Active means: 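a reagent is called a hit when its Z score is above 1.5 or below -1.5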
Calls: active = hit, ATP up or down; inactive = not a hit
This is a random part of about 3,100 reagents. In the full data, 126 (4.1%) got an active call. 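Calls are per reagent; zinc was so toxic that few knock-downs lowered ATP further, so most hits raise ATP.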 Raw values vary from plate to plate and are shown uncorrected. A number with no mark means an inactive call. Names joined by + are all predicted targets of the reagent. Not stated in the record: the amount of reagent.

target gene,DRSC id,mean Z score,"ATP luminescence, replicate 1","ATP luminescence, replicate 2"
ptc (GeneID 35851),DRSC05117,-0.107,39868,43059
ptc (GeneID 35851),DRSC07669,0.122,74757,73803
SMSr (GeneID 38823),DRSC10999,0.0532,81882,57700
Marf (GeneID 31581),DRSC28101,-0.171,57237,52168
CG11110 (GeneID 37337),DRSC06037,0.423,75467,80270
CG11110 (GeneID 37337),DRSC27355,1.23,86239,67715
CadN (GeneID 35070),DRSC03286,-1.18,34433,36130
CadN (GeneID 35070),DRSC27368,-0.502,52024,50103
Start1 (GeneID 37927),DRSC04384,0.062,26037,40045
Start1 (GeneID 37927),DRSC28343,-0.559,59723,45714
sut2 (GeneID 44269),DRSC07701,-0.687,26487,27664
sut2 (GeneID 44269),DRSC39500,0.718,58490,62295
Appl (GeneID 31002),DRSC27476,0.311,73323,58197
Appl (GeneID 31002),DRSC39441,0.199,46211,57832
CG31793 (GeneID 326161),DRSC02605,-0.252,45868,35925
CG31793 (GeneID 326161),DRSC24308,-0.304,51701,61800
Ir11a (GeneID 32189),DRSC19699,0.466,72054,75536
Ir11a (GeneID 32189),DRSC39480,0.116,54699,50159
Surf4 (GeneID 41864),DRSC16875,-0.716,32462,45954
Surf4 (GeneID 41864),DRSC39877,-0.269,47206,61504
CG10864 (GeneID 42222),DRSC14273,0.119,37517,61884
GrlHz (GeneID 37648),DRSC04424,-0.332,28845,29153
GrlHz (GeneID 37648),DRSC39675,1.35,78863,86582
Gr89a (GeneID 42007),DRSC15023,2.03 (active),41690,86487
Gr89a (GeneID 42007),DRSC39468,-0.281,49658,46177
Grik (GeneID 42476),DRSC15846,-0.0449,45354,46834
Grik (GeneID 42476),DRSC15847,-0.0311,34742,59414
Grik (GeneID 42476),DRSC26067,-0.0593,52144,57936
VhaM9.7-a (GeneID 38521),DRSC08289,-0.287,69300,55710
VhaM9.7-a (GeneID 38521),DRSC28340,0.582,69070,71694
colt (GeneID 33470),DRSC00808,-0.552,48732,48097
colt (GeneID 33470),DRSC29025,-0.0156,62878,59397
rho-7 (GeneID 36281),DRSC07304,0.136,80214,80338
phtf (GeneID 35583),DRSC05023,-0.375,25344,29805
phtf (GeneID 35583),DRSC28441,0.249,63774,66703
eag (GeneID 32428),DRSC19067,-0.329,1.17e5,67080
eag (GeneID 32428),DRSC20328,0.626,71694,81264
eag (GeneID 32428),DRSC28295,2.62 (active),1.18e5,90305
Gr10b (GeneID 32085),DRSC19477,-0.366,58594,61404
Gr10b (GeneID 32085),DRSC28702,-0.215,58626,57520
kirre (GeneID 31292),DRSC18785,-0.912,47007,54939
kirre (GeneID 31292),DRSC24733,-0.195,57460,56894
CG4168 (GeneID 34889),DRSC01447,-0.248,40931,40022
CG4168 (GeneID 34889),DRSC01933,-0.332,47103,56256
CG4168 (GeneID 34889),DRSC22789,-0.102,50035,44085
sina + Rh4,DRSC11396,-0.217,26359,29616
PIG-O (GeneID 37118),DRSC06123,-0.599,24790,26719
PIG-O (GeneID 37118),DRSC39439,-0.787,39679,42645
Sdr (GeneID 41809),DRSC15517,-0.292,41413,41222
Sdr (GeneID 41809),DRSC36929,-0.183,46805,41633
Sdr (GeneID 41809),DRSC36930,0.61,48097,72362
Mdr50 (GeneID 36582),DRSC07467,-0.0559,70738,71762
Mdr50 (GeneID 36582),DRSC23705,-0.0816,55813,54081
PGRP-LF + UGP,DRSC10418,-0.0523,73769,62621
tty (GeneID 33109),DRSC20588,-0.316,40063,44462
tty (GeneID 33109),DRSC26868,0.0501,64799,52915
mthl5 (GeneID 41438),DRSC16155,-0.478,34947,46520
mthl5 (GeneID 41438),DRSC39532,0.0165,52879,49503
CG7888 (GeneID 39232),DRSC10926,-0.658,25759,29805
CG7888 (GeneID 39232),DRSC39855,-0.238,48423,57590
CG7720 (GeneID 42257),DRSC16306,0.724,48594,58111
CG7720 (GeneID 42257),DRSC16307,0.0269,49143,39250
CG32262 (GeneID 38445),DRSC08165,-0.517,25517,30919
CG32262 (GeneID 38445),DRSC29141,0.702,74524,69858
et (GeneID 32975),DRSC19582,-0.338,40090,37898
CG32280 (GeneID 317952),DRSC08024,-0.793,30233,34810
CG32280 (GeneID 317952),DRSC39889,-0.279,52452,58144
PMCA (GeneID 43787),DRSC17113,-0.314,70973,54750
PMCA (GeneID 43787),DRSC17114,0.489,88965,63907
PMCA (GeneID 43787),DRSC17154,-0.336,41483,40599

Ordered by “mean Z score” (ascending): some entries from above.
target gene,DRSC id,mean Z score,"ATP luminescence, replicate 1","ATP luminescence, replicate 2"
CG32280 (GeneID 317952),DRSC08024,-0.793,30233,34810
et (GeneID 32975),DRSC19582,-0.338,40090,37898
PMCA (GeneID 43787),DRSC17113,-0.314,70973,54750
CG32280 (GeneID 317952),DRSC39889,-0.279,52452,58144
PMCA (GeneID 43787),DRSC17114,0.489,88965,63907
